Reference: patent US8026262B2, “Chemical compounds” (GlaxoSmithKline LLC, priority 2006, dated 2011)
Some entries share one result that the patent states for a list of compounds.

What follows are molecules tested against T1, human AR (Homo sapiens, UniProt P10275) (assay: AR functional assay (agonist mode), MMTV luciferase reporter in transfected CV-1 cells). Conditions: CV-1 cells transfected with human AR and MMTV luciferase, values said to be exemplary only.
T1 sequence (P10275 560-920 limits assumed): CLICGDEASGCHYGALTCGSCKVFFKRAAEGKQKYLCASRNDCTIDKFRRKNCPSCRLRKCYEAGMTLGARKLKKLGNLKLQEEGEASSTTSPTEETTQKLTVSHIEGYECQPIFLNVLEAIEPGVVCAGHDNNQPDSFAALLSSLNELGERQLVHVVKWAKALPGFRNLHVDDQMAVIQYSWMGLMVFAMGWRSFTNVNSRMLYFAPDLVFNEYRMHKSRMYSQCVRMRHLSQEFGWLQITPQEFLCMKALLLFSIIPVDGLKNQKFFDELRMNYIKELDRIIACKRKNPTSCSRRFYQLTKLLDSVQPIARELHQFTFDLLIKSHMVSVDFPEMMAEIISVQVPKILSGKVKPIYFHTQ
Type: cell-based

Structure (SMILES)	pIC50 in the agonist mode of the AR functional assay
N#Cc1ccc2c(ccn2Cc2nnc(-c3cc(F)ccc3F)o2)c1C(F)(F)F [Example 109, 1-{[5-(2,5-Difluorophenyl)-1,3,4-oxadiazol-2-yl]methyl}-4-(trifluoromethyl)-1H-indole-5-carbonitrile]	≥ 5.01
N#Cc1ccc2c(ccn2Cc2nnc(-c3cc(F)cc(F)c3)o2)c1C(F)(F)F [Example 110, 1-{[5-(3,5-Difluorophenyl)-1,3,4-oxadiazol-2-yl]methyl}-4-(trifluoromethyl)-1H-indole-5-carbonitrile]	≥ 5.01
N#Cc1ccc2c(c(Br)cn2Cc2noc(-c3cccc(C(F)(F)F)c3)n2)c1C(F)(F)F [Example 111, 3-Bromo-4-(trifluoromethyl)-1-({5-[3-(trifluoromethyl)phenyl]-1,2,4-oxadiazol-3-yl}methyl)-1H-indole-5-carbonitrile]	≥ 5.01
N#Cc1ccc2c(c(Cl)cn2Cc2noc(-c3cccc(C(F)(F)F)c3)n2)c1C(F)(F)F [Example 112, 3-Chloro-4-(trifluoromethyl)-1-({5-[3-(trifluoromethyl)phenyl]-1,2,4-oxadiazol-3-yl}methyl)-1H-indole-5-carbonitrile]	≥ 5.01
N#Cc1ccc2c(c1C(F)(F)F)CCN2Cc1noc(-c2cccc(C(F)(F)F)c2)n1 [Example 113, 4-(Trifluoromethyl)-1-({5-[3-(trifluoromethyl)phenyl]-1,2,4-oxadiazol-3-yl}methyl)-2,3-dihydro-1H-indole-5-carbonitrile]	≥ 5.01
Cc1cc2c(C(F)(F)F)c(Br)ccc2[nH]1 [Example 117, 5-Bromo-2-methyl-4-(trifluoromethyl)-1H-indole]	≥ 5.01
Cc1cc2c(C(F)(F)F)c(Br)ccc2n1CC1CC1 [Example 118, 5-Bromo-1-(cyclopropylmethyl)-2-methyl-4-(trifluoromethyl)-1H-indole]	≥ 5.01
Cc1cc2c(C(F)(F)F)c(Br)ccc2n1Cc1noc(-c2cccc(C(F)(F)F)c2)n1 [Example 119, 5-Bromo-2-methyl-4-(trifluoromethyl)-1-({5-[3-(trifluoromethyl)phenyl]-1,2,4-oxadiazol-3-yl}methyl)-1H-indole]	≥ 5.01
Cc1cc2c(C(F)(F)F)c(C#N)ccc2[nH]1 [Example 120, 2-methyl-4-(trifluoromethyl)-1H-indole-5-carbonitrile]	≥ 5.01
Cc1cc2c(C(F)(F)F)c(C#N)ccc2n1CC1CC1 [Example 121, 1-(Cyclopropylmethyl)-2-methyl-4-(trifluoromethyl)-1H-indole-5-carbonitrile]	≥ 5.01
Cc1cc2c(C(F)(F)F)c(C#N)ccc2n1CC(N)=O [Example 122, 2-[5-Cyano-2-methyl-4-(trifluoromethyl)-1H-indol-1-yl]acetamide]	≥ 5.01
Cc1cc2c(C(F)(F)F)c(C#N)ccc2n1CC(C)(C)C [Example 123, 1-(2,2-Dimethylpropyl)-2-methyl-4-(trifluoromethyl)-1H-indole-5-carbonitrile]	≥ 5.01
Cc1cc2c(C(F)(F)F)c(C#N)ccc2n1Cc1cscn1 [Example 125, 2-Methyl-1-(1,3-thiazol-4-ylmethyl)-4-(trifluoromethyl)-1H-indole-5-carbonitrile]	≥ 5.01
Cc1cc2c(C(F)(F)F)c(C#N)ccc2n1Cc1cccc(C#N)c1 [Example 126, 1-[(3-Cyanophenyl)methyl]-2-methyl-4-(trifluoromethyl)-1H-indole-5-carbonitrile]	≥ 5.01
Cc1noc(C)c1-c1nc(Cn2c(C)cc3c(C(F)(F)F)c(C#N)ccc32)no1 [Example 128, 1-{[5-(3,5-Dimethyl-4-isoxazolyl)-1,2,4-oxadiazol-3-yl]methyl}-2-methyl-4-(trifluoromethyl)-1H-indole-5-carbonitrile]	≥ 5.01
Cc1cc2c(C(F)(F)F)c(C#N)ccc2n1Cc1nc(-c2cccc(C(F)(F)F)c2)no1 [Example 130, 2-Methyl-4-(trifluoromethyl)-1-({3-[3-(trifluoromethyl)phenyl]-1,2,4-oxadiazol-5-yl}methyl)-1H-indole-5-carbonitrile]	≥ 5.01
Cc1cc2c(C(F)(F)F)c(C#N)ccc2n1Cc1nc(-c2cc(C(F)(F)F)cc(C(F)(F)F)c2)no1 [Example 131, 1-({3-[3,5-Bis(trifluoromethyl)phenyl]-1,2,4-oxadiazol-5-yl}methyl)-2-methyl-4-(trifluoromethyl)-1H-indole-5-carbonitrile]	≥ 5.01

Structure (SMILES)	pIC50 in the agonist mode of the AR functional assay
Cc1cc2c(C(F)(F)F)c(C#N)ccc2n1Cc1nnc(-c2ccc(C(F)(F)F)nc2)o1 [Example 132, 2-Methyl-4-(trifluoromethyl)-1-({5-[6-(trifluoromethyl)-3-pyridinyl]-1,3,4-oxadiazol-2-yl}methyl)-1H-indole-5-carbonitrile]	≥ 5.01
Cc1cc2c(C(F)(F)F)c(C#N)ccc2n1Cc1nnc(-c2cncc(Br)c2)o1 [Example 133, 1-{[5-(5-Bromo-3-pyridinyl)-1,3,4-oxadiazol-2-yl]methyl}-2-methyl-4-(trifluoromethyl)-1H-indole-5-carbonitrile]	≥ 5.01
CCNC(=O)Cn1c(C)cc2c(C(F)(F)F)c(C#N)ccc21 [Example 134, 2-[5-Cyano-2-methyl-4-(trifluoromethyl)-1H-indol-1-yl]-N-ethylacetamide]	≥ 5.01
Cc1cc2c(C(F)(F)F)c(C#N)ccc2n1Cc1nnc(-c2cccnc2)o1 [Example 135, 2-Methyl-1-{[5-(3-pyridinyl)-1,3,4-oxadiazol-2-yl]methyl}-4-(trifluoromethyl)-1H-indole-5-carbonitrile]	≥ 5.01
CC(=O)Nc1ccc(OCCn2c(C)cc3c(C(F)(F)F)c(C#N)ccc32)cc1 [Example 136, N-[4-({2-[5-Cyano-2-methyl-4-(trifluoromethyl)-1H-indol-1-yl]ethyl}oxy)phenyl]acetamide]	≥ 5.01
Cc1cc2c(C(F)(F)F)c(C#N)ccc2n1CCOc1ccc(F)nc1 [Example 137, 1-{2-[(6-Fluoro-3-pyridinyl)oxy]ethyl}-2-methyl-4-(trifluoromethyl)-1H-indole-5-carbonitrile]	≥ 5.01
Cc1cc2c(C(F)(F)F)c(C#N)ccc2n1Cc1nnc(-c2ccc(F)cc2)o1 [Example 138, 1-{[5-(4-Fluorophenyl)-1,3,4-oxadiazol-2-yl]methyl}-2-methyl-4-(trifluoromethyl)-1H-indole-5-carbonitrile]	≥ 5.01
Cc1cc2c(C(F)(F)F)c(C#N)ccc2n1CCOc1ccc(C(F)(F)F)cn1 [Example 139, 2-Methyl-4-(trifluoromethyl)-1-(2-{[5-(trifluoromethyl)-2-pyridinyl]oxy}ethyl)-1H-indole-5-carbonitrile]	≥ 5.01
Cc1c(F)c2c(C(F)(F)F)c(C#N)ccc2n1Cc1noc(-c2cccc(C(F)(F)F)c2)n1 [Example 140, 3-Fluoro-2-methyl-4-(trifluoromethyl)-1-({5-[3-(trifluoromethyl)phenyl]-1,2,4-oxadiazol-3-yl}methyl)-1H-indole-5-carbonitrile]	≥ 5.01
Cc1c(F)c2c(C(F)(F)F)c(C#N)ccc2n1Cc1noc(-c2cc(F)cc(F)c2)n1 [Example 141, 1-{[5-(3,5-Difluorophenyl)-1,2,4-oxadiazol-3-yl]methyl}-3-fluoro-2-methyl-4-(trifluoromethyl)-1H-indole-5-carbonitrile]	≥ 5.01
Cc1cc2c(C(F)(F)F)c(C#N)ccc2n1C(C)c1noc(-c2cccc(C(F)(F)F)c2)n1 (stereo not drawn) [Example 142, 2-Methyl-4-(trifluoromethyl)-1-(1-{5-[3-(trifluoromethyl)phenyl]-1,2,4-oxadiazol-3-yl}ethyl)-1H-indole-5-carbonitrile]	≥ 5.01
Cc1cc2c(C(F)(F)F)c(C#N)ccc2n1C(C)c1nc(-c2ccc(F)cc2)no1 (stereo not drawn) [Example 143, 1-{1-[3-(4-Fluorophenyl)-1,2,4-oxadiazol-5-yl]ethyl}-2-methyl-4-(trifluoromethyl)-1H-indole-5-carbonitrile]	≥ 5.01
CCc1cc2c(C(F)(F)F)c(C#N)ccc2n1CC(N)=O [Example 145, 2-[5-Cyano-2-ethyl-4-(trifluoromethyl)-1H-indol-1-yl]acetamide]	≥ 5.01
CCc1cc2c(C(F)(F)F)c(C#N)ccc2n1Cc1nnc(-c2cncc(Br)c2)o1 [Example 146, 1-{[5-(5-Bromo-3-pyridinyl)-1,3,4-oxadiazol-2-yl]methyl}-2-ethyl-4-(trifluoromethyl)-1H-indole-5-carbonitrile]	≥ 5.01
CCc1cc2c(C(F)(F)F)c(C#N)ccc2n1Cc1noc(-c2cccc(C(F)(F)F)c2)n1 [Example 147, 2-Ethyl-4-(trifluoromethyl)-1-({5-[3-(trifluoromethyl)phenyl]-1,2,4-oxadiazol-3-yl}methyl)-1H-indole-5-carbonitrile]	≥ 5.01
CCc1cc2c(C(F)(F)F)c(C#N)ccc2n1C(CC)CC [Example 148, 2-Ethyl-1-(1-ethylpropyl)-4-(trifluoromethyl)-1H-indole-5-carbonitrile]	≥ 5.01
